According to PMC6099276:

Tests used:
Experiment in all cases: two-hybrid; split-ubiquitin yeast two-hybrid; USL1 forms as Cub fusions (MetYCgate), NubG-VPS30 (pPR3-N); yeast strain NMY51; growth on SD-Trp-Leu-His-Ade
[1] = biological target: USL1ΔCC2-Cub (Arabidopsis thaliana) (UniProt Q8S9J3)
[2] = biological target: USL1ΔCC1-Cub (Arabidopsis thaliana) (UniProt Q8S9J3)
[3] = biological target: USL1ΔC-Cub (Arabidopsis thaliana)

binding [1]: no binding
binding [2]: no binding
binding [3]: binds
B1: NubG-VPS30 (protein, UniProt Q9M367 1-517)
chain: MRKEEIPDKSRTIPIDPNLPKWVCQNCHHSLTIVGVDSYAGKFFNDPPPSATQGSSIHGANSVLGSTRMDNSFVVLPRHKPPQSQGIPPRPRGASSPQPDATQSGKAMEESFVVVYKSEPVSDSGGSHNLSLEVGQNGPLHSNTSGFNATINVLTRAFDIARTQTQVEQPLCLECMRVLSDKLEKEVEDVTRDVEAYEACVQRLEGETQDVLSEADFLKEKKKIEEEERKLVAAIEETEKQNAEVNHQLKELEFKGNRFNELEDRYWQEFNNFQFQLIAHQEERDAILAKIEVSQAHLELLNKTNVLIDAFPIRNDGEFGTINNFRLGRLPAIKVEWDEINAAWGQACLLLHTMCNYFRPKFQCQVKIQPMGSYPRIVDSNNETYELFGPVNLFWSTRYDKAMTLYLMCLKDFADFANSKDQENNIPPDNCLNLPYKIEKDKVLGYSITQSFNKQESWTKALKYTLCNLKWALYWFVGNTNFQPLSATVSLPSNISAAGSLYAKRGPDSSKPSCKKT

Results are given in words; binding and its absence hold for the method and conditions named. For part of these data: Binding can be weak; no strength is given.
